Measured values: PubChem BioAssay AID2685 (National Center for Advancing Translational Sciences (NCATS), 2010)
This is one part of the list. Shown are side measurements of this screen, not its main read-out; they come without a call. Compounds called inactive in the main read-out are mostly missing here. The note in brackets gives the kind of curve behind each potency; many fits are weak.

Assay: qHTS Assay for Lipid Storage Modulators in Drosophila S3 Cells;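 as to cell number change: cells counted by Cell Tracker Red CMTPX staining in the red channel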
Settings: BODIPY lipid droplet fluorescence, 18-24 h; for cell number change: measured here: cell count max response, cells fed with added oleic acid
Summary of the method: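 Laser-scanning cytometry quantifies lipid droplet accumulation (500–530 nm total intensity; droplet/cell object ratio) in oleic acid-fed (400 uM added) Drosophila S3 cells treated with a concentration series. 20 uM Triacsin C defined 100% inhibition.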

[1] = measured here: lipid fluorescence (Fed channel) AC50, cells fed with added oleic acid
[2] = measured here: cell number channel AC50, cells fed with added oleic acid

Cc1cccc(N(C(=O)c2snc(C(N)=O)c2N)C(C(=O)NCC2CCCO2)c2ccc(N(C)C)cc2)c1 (stereo not given)
AC50 [1]: 1.84 µM [rising, single point]

CCCCC(CC(C)O)c1n[nH]c(=S)n1-c1ccccc1 (stereo not given)
cell number change: 1.76% | AC50 [1]: 1.3 µM [rising, single point]

CCn1c(=O)n(CC)c2cc(S(=O)(=O)N3CCOCC3)ccc21
cell number change: 2.25%

Cc1ccc(NC(=O)NC2CCCCC2)cc1S(=O)(=O)N1CCOCC1
cell number change: 47.8% | AC50 [2]: 9.2 µM [rising, partial curve, poor fit]

Cc1ccc(OCC(=O)N2CCc3ccccc3C2)c(Br)c1
cell number change: 13.5% | AC50 [1]: 0.58 µM [falling, single point]

CC(=O)N1CCc2cc(S(=O)(=O)NC(CC(C)C)C(=O)Nc3cc(C)ccn3)ccc21 (stereo not given)
cell number change: 14.2%

Cc1cc(S(=O)(=O)NC2CCCCC2)c(C)s1
cell number change: -35.3% | AC50 [2]: 25.9 µM [falling, partial curve, poor fit] | AC50 [1]: 25.9 µM [falling, partial curve, poor fit]

CCOC(=O)c1ccc(-c2ccc(/C=N/NC(=O)CN(c3ccccc3Cl)S(C)(=O)=O)o2)cc1
cell number change: -13.8% | AC50 [1]: 18.4 µM [falling, single point]

O=C1c2cccnc2C(Nc2ccccc2)N1Cc1ccco1 (stereo not given)
AC50 [1]: 0.731 µM [rising, single point]

N#CCn1c(CN2CCCC2)nc2ccccc2c1=O
cell number change: 23.5%

CN1CCN(c2nc(Nc3cccc(C(F)(F)F)c3)nc(N3CCOCC3)n2)CC1
cell number change: -32.1% | AC50 [2]: 29.1 µM [falling, single point] | AC50 [1]: 2.91 µM [rising, single point]

CCOc1ccc(-n2c(=O)c3c4c(sc3n(CC(=O)NCc3ccco3)c2=O)CCC4)cc1
cell number change: 6.67% | AC50 [1]: 0.517 µM [rising, single point]

S=C(NCc1ccco1)N1CCN(c2cccc(Cl)c2)CC1
cell number change: -11.9% | AC50 [1]: 18.4 µM [falling, partial curve, poor fit]

CCCSc1nc(O)c(C2OC(=O)c3c2ccc(OC)c3OC)c(=O)n1C (stereo not given)
cell number change: -19.8% | AC50 [1]: 4.61 µM [falling, full curve, poor fit]

COc1ccccc1N1CCN(C(=O)C2CCN(S(=O)(=O)c3ccc(F)cc3)CC2)CC1
cell number change: -16.3% | AC50 [1]: 29.1 µM [rising, single point]

C/C(=N\NC(=S)NCc1ccccc1)c1ccc(C(C)(C)C)cc1
cell number change: 35.6% | AC50 [2]: 6.51 µM [rising, partial curve, poor fit]

CC(C(=O)N(C)C1CCCCC1)N1CCC(C(N)=O)CC1 (stereo not given)
cell number change: 22.7% | AC50 [1]: 0.231 µM [rising, partial curve, poor fit]

CCC1(CC)Cc2ccccc2-c2nc3ccccc3c(=O)n21
AC50 [1]: 32.6 µM [rising, single point]

CCCN1CCN(C(=O)c2cn(CC(C)C)c(=O)c3cc(OC)c(OC)cc23)CC1
cell number change: -18.1%

COc1cc2cc(C(=O)N3CCc4ccccc4C3)[nH]c2cc1OC
cell number change: 18.7% | AC50 [1]: 14.6 µM [rising, partial curve]

OCCC1CN(Cc2nc3c(s2)CCCC3)CCN1CCc1ccccc1 (stereo not given)
cell number change: 19.9%

O=C(Nc1ccsc1C(=O)N1CCCCCC1)c1ccccc1
cell number change: 23.7% | AC50 [1]: 6.51 µM [rising, single point]

N=c1ccn(Cc2ccc(Cl)c(Cl)c2)cc1
cell number change: -43.5% | AC50 [2]: 29.1 µM [falling, single point] | AC50 [1]: 14.6 µM [falling, partial curve]

COc1cc(C(=O)OCCc2cc3ccccc3c(=O)o2)cc(OC)c1OC
cell number change: 13.6% | AC50 [1]: 0.461 µM [rising, partial curve]

CCCn1c(SCC(=O)c2cc(C)n(C3CC3)c2C)n[nH]c1=O
cell number change: -45.6% | AC50 [2]: 29.1 µM [falling, single point] | AC50 [1]: 1.84 µM [falling, partial curve]

Cc1ccc[n+](C2C(c3ccc([N+](=O)[O-])cc3)C(C#N)=C([S-])NC2(O)C2CC2)c1 (stereo not given)
AC50 [2]: 6.51 µM [falling, single point] | AC50 [1]: 1.3 µM [falling, partial curve]

O=S(=O)(NCC1CCCO1)c1ccc(NS(=O)(=O)c2ccc(F)cc2)cc1 (stereo not given)
cell number change: 20.4% | AC50 [1]: 29.1 µM [rising, single point]

Cc1ccccc1CNC(=O)c1ccc2ccccc2n1
cell number change: 15.8% | AC50 [1]: 29.1 µM [rising, single point]

O=C(OCC(=O)N1CCN(C(=O)c2ccco2)CC1)c1ccc(Cl)c(Cl)c1
cell number change: 3.99%

Clc1ccc(C2=NN=C3COc4ccccc4N3C2)cc1
cell number change: 33.5% | AC50 [2]: 29.1 µM [rising, single point] | AC50 [1]: 29.1 µM [rising, single point]

CC(=O)O[C@H]1CC[C@@]2(C)[C@@H](CC[C@H]3[C@@H]4CC[C@H](C(C)O)[C@@]4(C)CC(=O)[C@@H]32)C1 (stereo not given in full)
cell number change: -17.4% | AC50 [1]: 0.00517 µM [falling, full curve, poor fit]

CC(=O)c1ccc2c(c1)OCCOCCOCCOCCOCCO2
cell number change: -31% | AC50 [2]: 23.1 µM [falling, single point] | AC50 [1]: 29.1 µM [falling, single point]

Cc1ccc(NC(=O)CCn2cccc2)cc1Cl
cell number change: 0.711% | AC50 [1]: 3.26 µM [falling, partial curve]

O=C(NCCN1CCN(c2ccccc2)CC1)Nc1ccccc1Cl
cell number change: -2.63% | AC50 [1]: 2.31 µM [rising, partial curve, poor fit]

O=C(/C=C/c1ccccc1[N+](=O)[O-])NCc1ccccc1Cl
cell number change: 28.9%

COc1ccccc1N1CCN(c2ccc(-c3ccccc3)nn2)CC1
cell number change: -25%

S=C(NCCc1ccc(Cl)cc1)NCc1ccco1
cell number change: 28%

CC(C)OC(=O)/C(=C\c1cccc2ccccc12)NC(=O)c1ccccc1
cell number change: -13.3%

COc1ccc(C2=NCC(CSc3nnnn3C)S2)cc1 (stereo not given)
cell number change: -17.8% | AC50 [1]: 29.1 µM [rising, single point]

CC(C)(C)c1ccc(/C=C2/SC(N3CCCC3)=NC2=O)cc1
cell number change: -43.4% | AC50 [2]: 16.4 µM [falling, partial curve, poor fit] | AC50 [1]: 18.4 µM [falling, single point]

Cc1ccc(Cn2c(=N)n(CC(O)c3ccco3)c3ccccc32)cc1 (stereo not given)
AC50 [1]: 29.1 µM [falling, partial curve]

Cc1ccc(N2CCN(CC(O)COC3CCCCC3)CC2)cc1 (stereo not given)
cell number change: -5.78% | AC50 [2]: 4.11 µM [falling, single point]

COc1ccc(-n2c(SCC(=O)Nc3sc4c(c3C#N)CCCC4)nnc2-c2ccc(O)cc2)cc1
cell number change: 9.22% | AC50 [2]: 0.0651 µM [rising, full curve, poor fit]

O=C(c1ccccc1NS(=O)(=O)c1ccc(Br)cc1)N1CCOCC1
cell number change: -25.2%

CCC1(c2ccc(Cl)cc2)NC(=O)N(Cc2ccc(C(=O)OC)cc2)C1=O (stereo not given)
cell number change: -22% | AC50 [1]: 29.1 µM [falling, single point]

O=[N+]([O-])c1cccc(CN2CCCCCC2)c1
cell number change: -16.9% | AC50 [1]: 29.1 µM [falling, single point]

COc1cccc(-n2c(SCC(=O)NCCc3ccccc3)nnc2-c2ccoc2C)c1
AC50 [2]: 6.51 µM [rising, single point] | AC50 [1]: 2.06 µM [rising, full curve]

COC(=O)c1nc(-c2ccccc2)oc1N1CCOCC1
cell number change: 30.5% | AC50 [2]: 6.51 µM [rising, full curve, poor fit] | AC50 [1]: 7.31 µM [rising, partial curve]

CCC(=O)N1CCN(c2ccc(NC(=O)c3ccco3)cc2Cl)CC1
cell number change: -20.4% | AC50 [1]: 0.58 µM [falling, single point]

O=C(Oc1ccc(Cl)c2ccccc12)N1CCCCC1
cell number change: 74% | AC50 [2]: 29.1 µM [rising, single point] | AC50 [1]: 29.1 µM [rising, single point]

Cc1cc(NC(=O)CSc2nc3ccccc3n2CCC#N)no1
cell number change: 56% | AC50 [2]: 0.00461 µM [rising, full curve, poor fit]

O=C(Nc1ccc(F)cc1F)Nc1csc2ccccc12
cell number change: -28.8% | AC50 [1]: 32.6 µM [falling, partial curve, poor fit]

Cc1ccc2nc(CSc3nc(C)ccc3C#N)[nH]c2c1
AC50 [2]: 0.206 µM [rising, full curve] | AC50 [1]: 0.206 µM [rising, full curve, poor fit]

O=C(CNS(=O)(=O)c1ccccc1)NCc1cccnc1
cell number change: 12.2% | AC50 [1]: 0.00651 µM [rising, full curve, poor fit]

Cc1cccc(C)c1NC(=O)CCCN1C(=O)C(c2ccccc2)Oc2cccnc21 (stereo not given)
cell number change: -23.7% | AC50 [1]: 29.1 µM [falling, single point]

Cc1ccc(S(=O)(=O)N2CCCCC2)cc1NC(=O)c1cccs1
cell number change: -2.55% | AC50 [1]: 0.82 µM [rising, single point]

O=C(CCc1ccccc1)N=C1SC2CS(=O)(=O)CC2N1c1ccc(F)cc1 (stereo not given)
cell number change: 14.4% | AC50 [2]: 0.00461 µM [rising, full curve, poor fit]

O=C(Nc1cc(F)ccc1F)C1CCCO1 (stereo not given)
cell number change: -110% | AC50 [2]: 29.1 µM [falling, partial curve] | AC50 [1]: 29.1 µM [falling, partial curve]

CCOc1ccc(NS(=O)(=O)c2cc(C(=O)N3CCN(C(C)=O)CC3)ccc2Cl)cc1
cell number change: -34.7% | AC50 [2]: 2.59 µM [falling, partial curve] | AC50 [1]: 1.3 µM [falling, full curve, poor fit]

COc1ccc(-c2nnc(SCC(=O)N3CCCCC3)o2)c(OC)c1
AC50 [1]: 2.06 µM [rising, partial curve]
